Assay results: article PMC5271409
These are yes or no findings as the source states them, for the method shown. Binding seen in cells or lysates may run through a third protein.

Sequences of proteins named here, by UniProt entry; tags and fusion partners are left off.
UniProt Q86WV6: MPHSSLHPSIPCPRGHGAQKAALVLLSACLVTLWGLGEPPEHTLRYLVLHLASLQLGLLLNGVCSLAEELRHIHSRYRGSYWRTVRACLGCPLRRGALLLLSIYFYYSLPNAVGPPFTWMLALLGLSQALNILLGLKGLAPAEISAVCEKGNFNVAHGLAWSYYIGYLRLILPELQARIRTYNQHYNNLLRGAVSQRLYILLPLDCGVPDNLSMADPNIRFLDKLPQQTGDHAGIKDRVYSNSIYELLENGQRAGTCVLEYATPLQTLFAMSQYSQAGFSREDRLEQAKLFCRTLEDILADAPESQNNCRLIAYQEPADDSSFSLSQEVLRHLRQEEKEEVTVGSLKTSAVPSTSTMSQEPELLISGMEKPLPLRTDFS

T1: sentrin/SUMO-specific protease 7 (SENP7), wild type (UniProt Q9BQF6)
T1 sequence: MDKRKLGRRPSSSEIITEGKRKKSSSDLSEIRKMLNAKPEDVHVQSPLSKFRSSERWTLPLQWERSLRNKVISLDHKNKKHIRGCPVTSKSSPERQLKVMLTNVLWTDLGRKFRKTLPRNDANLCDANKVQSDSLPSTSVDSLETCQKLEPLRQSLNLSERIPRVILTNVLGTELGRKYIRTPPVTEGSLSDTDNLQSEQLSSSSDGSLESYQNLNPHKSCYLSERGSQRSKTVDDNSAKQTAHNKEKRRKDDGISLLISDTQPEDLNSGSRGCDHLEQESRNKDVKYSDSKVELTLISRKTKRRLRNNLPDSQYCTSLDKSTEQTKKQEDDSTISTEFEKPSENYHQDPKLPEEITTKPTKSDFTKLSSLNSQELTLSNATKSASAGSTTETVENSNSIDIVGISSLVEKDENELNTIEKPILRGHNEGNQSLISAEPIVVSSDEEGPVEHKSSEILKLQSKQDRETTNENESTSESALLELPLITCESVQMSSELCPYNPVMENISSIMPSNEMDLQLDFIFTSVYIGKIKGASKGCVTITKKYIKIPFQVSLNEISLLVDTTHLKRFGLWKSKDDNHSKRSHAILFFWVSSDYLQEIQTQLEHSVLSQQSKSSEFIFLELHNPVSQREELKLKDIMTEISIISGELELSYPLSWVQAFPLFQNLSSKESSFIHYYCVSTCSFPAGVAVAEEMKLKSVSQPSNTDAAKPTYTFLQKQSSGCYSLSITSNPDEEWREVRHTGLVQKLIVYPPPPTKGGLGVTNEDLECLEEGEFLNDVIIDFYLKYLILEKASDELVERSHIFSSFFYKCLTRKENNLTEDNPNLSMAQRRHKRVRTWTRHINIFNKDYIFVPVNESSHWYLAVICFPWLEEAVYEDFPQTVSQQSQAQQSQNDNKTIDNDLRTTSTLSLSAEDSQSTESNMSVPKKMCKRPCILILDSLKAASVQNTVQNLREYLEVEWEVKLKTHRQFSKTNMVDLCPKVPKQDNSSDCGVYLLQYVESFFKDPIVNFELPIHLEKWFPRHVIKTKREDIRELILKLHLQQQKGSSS

B1: IRF3 (protein, UniProt Q14653 1-427)
chain: MGTPKPRILPWLVSQLDLGQLEGVAWVNKSRTRFRIPWKHGLRQDAQQEDFGIFQAWAEATGAYVPGRDKPDLPTWKRNFRSALNRKEGLRLAEDRSKDPHDPHKIYEFVNSGVGDFSQPDTSPDTNGGGSTSDTQEDILDELLGNMVLAPLPDPGPPSLAVAPEPCPQPLRSPSLDNPTPFPNLGPSENPLKRLLVPGEEWEFEVTAFYRGRQVFQQTISCPEGLRLVGSEVGDRTLPGWPVTLPDPGMSLTDRGVMSYVRHVLSCLGGGLALWRAGQWLWAQRLGHCHTYWAVSEELLPNSGHGPDGEVPKDKEGGVFDLGPFIVDLITFTEGSGRSPRYALWFCVGESWPQDQPWTKRLVMVKVVPTCLRALVEMARVGGASSLENTVDLHISNSHPLSLTSDQYKAYLQDLVEGMDFQGPGES
B2: TBK1 (protein, UniProt Q9UHD2 1-729)
chain: MQSTSNHLWLLSDILGQGATANVFRGRHKKTGDLFAIKVFNNISFLRPVDVQMREFEVLKKLNHKNIVKLFAIEEETTTRHKVLIMEFCPCGSLYTVLEEPSNAYGLPESEFLIVLRDVVGGMNHLRENGIVHRDIKPGNIMRVIGEDGQSVYKLTDFGAARELEDDEQFVSLYGTEEYLHPDMYERAVLRKDHQKKYGATVDLWSIGVTFYHAATGSLPFRPFEGPRRNKEVMYKIITGKPSGAISGVQKAENGPIDWSGDMPVSCSLSRGLQVLLTPVLANILEADQEKCWGFDQFFAETSDILHRMVIHVFSLQQMTAHKIYIHSYNTATIFHELVYKQTKIISSNQELIYEGRRLVLEPGRLAQHFPKTTEENPIFVVSREPLNTIGLIYEKISLPKVHPRYDLDGDASMAKAITGVVCYACRIASTLLLYQELMRKGIRWLIELIKDDYNETVHKKTEVVITLDFCIRNIEKTVKVYEKLMKINLEAAELGEISDIHTKLLRLSSSQGTIETSLQDIDSRLSPGGSLADAWAHQEGTHPKDRNVEKLQVLLNCMTEIYYQFKKDKAERRLAYNEEQIHKFDKQKLYYHATKAMTHFTDECVKKYEAFLNKSEEWIRKMLHLRKQLLSLTNQCFDIEEEVSKYQEYTNELQETLPQKMFTASSGIKHTMTPIYPSSNTLVEMTLGMKKLKEEMEGVVKELAENNHILERFGSLTMDGGLRNVDCL

What follows are molecules tested against T1, sentrin/SUMO-specific protease 7 (SENP7), wild type (assay: co-IP; HEK293T cells transfected with the indicated plasmids; lysates in RIPA buffer (50 mM Tris-HCl pH 7.4, 150 mM NaCl, 1 mM EDTA, 1% Triton X-100, 0.1% SDS, 0.5% deoxycholate, 20 mM NEM); immunoprecipitated with anti-Flag antibody or Flag-beads (Fig 3F, 3G, 5I, S2D, S2E) or anti-Myc antibody (S2C), immunoblot; Fig 5I with or without co-expressed SUMO).

Row | binding | Molecule
1 | no binding | stimulator of interferon genes (STING) (from UniProt Q86WV6 1-379)
2 | no binding | B1
3 | no binding | B2
